PubChem BioAssay AID1159578 | Peter MacCallum Cancer Centre | 2015
Shown is a random part of about 18,000 reagents tested. About 1,030 of all reagents (5.7%) count as active. 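Inactive calls also include pools with fewer than 3300 nuclei, whose migration was not assessed.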 Raw values vary from plate to plate and are shown uncorrected. Entries without a mark were called inactive. Not all columns of the deposit are shown.

Screen: 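Genome-wide hunt for genes controlling movement of lymphatic endothelial cells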 (primary screen)
Cells: human lymphatic endothelial cells
Reagent: siRNA pool against human genes, 40 nM
Timing: 48 h after transfection
Measured: 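High-content imaging of dye-stained cells in a scratch assay measures filled wound area and nuclei per well; duplicate means given as ratio to mock and robust z-score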
Scale: migration robust z-score: higher = faster migration into the scratch; nuclei per well: higher = more cells in the well
Hit rule: 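Migration changed when robust z exceeds 2 or falls below -2 and mean nuclei number is at least 3300; otherwise not called changed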
Calls: active = migration changed; inactive = no migration change, or too few cells

TSPAN12 gave migration robust z-score -0.56; migration class with cell-count check migration z between -2 and 2; enough cells; nuclei per well, duplicate mean 5349.
Silencing of CDC20B came out at: migration robust z-score 0.59; migration class with cell-count check migration z between -2 and 2; enough cells; nuclei per well, duplicate mean 4733.
Depletion of CDC42EP3 resulted in: migration robust z-score -1.67; migration class with cell-count check migration z between -2 and 2; enough cells; nuclei per well, duplicate mean 5594.
NT5E gave migration robust z-score -0.83; migration class with cell-count check migration z between -2 and 2; enough cells; nuclei per well, duplicate mean 5310.
SCGB3A2 gave migration robust z-score 0.18; migration class with cell-count check migration z between -2 and 2; enough cells; nuclei per well, duplicate mean 5603.
For VCPKMT, the entry reads migration robust z-score -1.05; migration class with cell-count check migration z between -2 and 2; enough cells; nuclei per well, duplicate mean 5640.

Records above whose gene name starts with C or c (2):
CDC20B | migration robust z-score: 0.59; migration class with cell-count check: migration z between -2 and 2; enough cells; nuclei per well, duplicate mean: 4733
CDC42EP3 | migration robust z-score: -1.67; migration class with cell-count check: migration z between -2 and 2; enough cells; nuclei per well, duplicate mean: 5594

The list goes on:
NSUN3 gave migration robust z-score 0.72; migration class with cell-count check migration z between -2 and 2; enough cells; nuclei per well, duplicate mean 6985.
Silencing of BCL2L13 gave: migration robust z-score -0.57; migration class with cell-count check migration z between -2 and 2; enough cells; nuclei per well, duplicate mean 4968.
Against SPATA46 the deposit lists migration robust z-score -2.71 (active); migration class with cell-count check migration z below -2; enough cells; nuclei per well, duplicate mean 4385.
For TNFAIP3, the entry reads migration robust z-score 0.16; migration class with cell-count check migration z between -2 and 2; enough cells; nuclei per well, duplicate mean 4699.
With knock-down of KHDRBS1 the results were migration robust z-score 0.56; migration class with cell-count check migration z between -2 and 2; enough cells; nuclei per well, duplicate mean 7408.
After knock-down of RD3, the record shows migration robust z-score -0.07; migration class with cell-count check migration z between -2 and 2; enough cells; nuclei per well, duplicate mean 4516.
